Results are given in words; binding and its absence hold for the method and conditions named. Binding seen in cells or lysates may run through a third protein. Some binding calls cover weakened binding; strength is not graded here.

The target of experiment [1] is T1, tumor necrosis factor receptor associated factor (TRAF) 3, overexpressed in HEK293T cells (UniProt Q60803).
T1 sequence: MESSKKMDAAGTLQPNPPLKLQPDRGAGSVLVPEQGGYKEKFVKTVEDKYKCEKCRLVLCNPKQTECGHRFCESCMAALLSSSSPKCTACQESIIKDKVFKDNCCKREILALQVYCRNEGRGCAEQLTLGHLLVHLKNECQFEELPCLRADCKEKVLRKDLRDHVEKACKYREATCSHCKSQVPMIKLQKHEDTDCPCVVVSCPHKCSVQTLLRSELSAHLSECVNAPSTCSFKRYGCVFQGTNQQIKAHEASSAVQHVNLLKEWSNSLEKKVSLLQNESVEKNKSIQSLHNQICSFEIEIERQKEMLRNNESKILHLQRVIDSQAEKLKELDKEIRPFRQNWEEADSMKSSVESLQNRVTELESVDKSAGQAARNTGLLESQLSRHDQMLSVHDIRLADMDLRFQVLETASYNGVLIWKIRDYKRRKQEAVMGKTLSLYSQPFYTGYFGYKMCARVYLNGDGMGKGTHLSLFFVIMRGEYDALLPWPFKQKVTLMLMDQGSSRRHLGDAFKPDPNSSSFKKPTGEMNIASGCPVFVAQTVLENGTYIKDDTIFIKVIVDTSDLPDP
The experiment in a line: co-IP; HEK293T cells transfected with the indicated plasmids (PEI, 48 h); lysates incubated with the indicated gels at 4 °C overnight, washed three times with cell lysis buffer; immunoblot. (In western blotting, separated proteins are transferred to a membrane and probed.)

The target of experiment [2] is T2, TRAF3, endogenous in MH-S alveolar macrophages (mouse (endogenous in MH-S)) (UniProt Q60803).
T2 sequence: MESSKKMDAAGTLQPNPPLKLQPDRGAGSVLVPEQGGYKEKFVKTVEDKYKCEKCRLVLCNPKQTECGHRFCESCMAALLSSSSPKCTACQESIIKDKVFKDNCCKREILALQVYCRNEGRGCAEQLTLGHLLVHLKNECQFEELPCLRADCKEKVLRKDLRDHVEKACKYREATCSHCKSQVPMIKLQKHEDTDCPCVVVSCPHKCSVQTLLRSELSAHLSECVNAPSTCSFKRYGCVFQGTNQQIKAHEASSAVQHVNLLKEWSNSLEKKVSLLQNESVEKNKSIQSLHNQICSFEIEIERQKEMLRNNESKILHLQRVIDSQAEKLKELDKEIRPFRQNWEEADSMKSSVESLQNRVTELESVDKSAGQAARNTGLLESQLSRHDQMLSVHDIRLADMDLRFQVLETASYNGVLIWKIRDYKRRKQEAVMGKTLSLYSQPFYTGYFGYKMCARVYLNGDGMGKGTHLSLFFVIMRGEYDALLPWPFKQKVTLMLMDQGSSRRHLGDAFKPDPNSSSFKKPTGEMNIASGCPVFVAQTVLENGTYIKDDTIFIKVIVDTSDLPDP
The experiment in a line: co-IP; MH-S macrophages infected with S. aureus strains (MOI = 25) for the indicated times; lysates incubated with the indicated gels at 4 °C overnight; immunoblot.

B1: TRAF2, overexpressed in HEK293T cells (protein, UniProt P39429 1-501)
chain: MAAASVTSPGSLELLQPGFSKTLLGTRLEAKYLCSACKNILRRPFQAQCGHRYCSFCLTSILSSGPQNCAACVYEGLYEEGISILESSSAFPDNAARREVESLPAVCPNDGCTWKGTLKEYESCHEGLCPFLLTECPACKGLVRLSEKEHHTEQECPKRSLSCQHCRAPCSHVDLEVHYEVCPKFPLTCDGCGKKKIPRETFQDHVRACSKCRVLCRFHTVGCSEMVETENLQDHELQRLREHLALLLSSFLEAQASPGTLNQVGPELLQRCQILEQKIATFENIVCVLNREVERVAVTAEACSRQHRLDQDKIEALSNKVQQLERSIGLKDLAMADLEQKVSELEVSTYDGVFIWKISDFTRKRQEAVAGRTPAIFSPAFYTSRYGYKMCLRVYLNGDGTGRGTHLSLFFVVMKGPNDALLQWPFNQKVTLMLLDHNNREHVIDAFRPDVTSSSFQRPVSDMNIASGCPLFCPVSKMEAKNSYVRDDAIFIKAIVDLTGL
Regarding B1, the binding entry in experiment [1] is on record as “binds”.

B2: TRAF2, endogenous in MH-S alveolar macrophages (protein, UniProt P39429 1-501)
chain: MAAASVTSPGSLELLQPGFSKTLLGTRLEAKYLCSACKNILRRPFQAQCGHRYCSFCLTSILSSGPQNCAACVYEGLYEEGISILESSSAFPDNAARREVESLPAVCPNDGCTWKGTLKEYESCHEGLCPFLLTECPACKGLVRLSEKEHHTEQECPKRSLSCQHCRAPCSHVDLEVHYEVCPKFPLTCDGCGKKKIPRETFQDHVRACSKCRVLCRFHTVGCSEMVETENLQDHELQRLREHLALLLSSFLEAQASPGTLNQVGPELLQRCQILEQKIATFENIVCVLNREVERVAVTAEACSRQHRLDQDKIEALSNKVQQLERSIGLKDLAMADLEQKVSELEVSTYDGVFIWKISDFTRKRQEAVAGRTPAIFSPAFYTSRYGYKMCLRVYLNGDGTGRGTHLSLFFVVMKGPNDALLQWPFNQKVTLMLLDHNNREHVIDAFRPDVTSSSFQRPVSDMNIASGCPLFCPVSKMEAKNSYVRDDAIFIKAIVDLTGL
Regarding B2, the binding entry in experiment [2] is reported as “binds”.

The values above are taken from paper PMC9484707.
